# Experimental data taken from PubChem BioAssay AID743276 (Broad Institute, 2014).
# Inconclusive results, whose numbers are uncertain, are shown with a selection of clear calls. Calls of active or inactive are those of the source.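 How the source made its calls: active means compounds whose fitted cell loss curve, in every repeat run, reached half effect below twice the top dose; inconclusive means repeat runs disagree, or runs show weak or poorly fitted drops; inactive means every repeat run called inactive.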
# Test: reduction of CAPAN-1 cell number – imaging, dry powder, set 3, dose response (AID 743276)
# Conditions: Hoechst imaging, 14 days; at 50 µM (top of the series)
row,Compound,"activity change, negative = fewer cells"
1,Cc1nccn1Cc1ccc(NC(=O)c2cccc(NC(=O)c3cccnc3)c2)cc1,inconclusive: -99.6%
2,COc1ccc(-c2nc(C(=O)NCCCN3CCOCC3)cc3c2[nH]c2ccccc23)cc1OC,inconclusive: -22.1%
3,c1ccc(-c2cc(N3CCN(CCN4CCCC4)CC3)n3nccc3n2)cc1,inconclusive: -60.8%
4,CCN(CC)CCNc1nc(SC)nc2sc3c(c12)CCN(C)C3,inconclusive: -100%
5,CCCN(CCC)CCCNC(=S)Nc1ccc2nc(N3CCN(C)CC3)cc(C)c2c1,inconclusive: -1.07%
6,COc1ccc(-c2oc3ncnc(NCCCN(C)C)c3c2-c2ccc(OC)cc2)cc1,inconclusive: -1.48%
7,Cc1cc(N2CCN(C)CC2)nc2ccc(NC(=S)N3CCN(c4ccc(Cl)cc4)CC3)cc12,inconclusive: -49.5%
8,c1ccc(CNc2nc(NCc3ccccc3)c3ccccc3n2)cc1,inconclusive: 27.2%
9,CCCNc1nc(NCc2cccnc2)nc(N2CCOCC2)n1,inconclusive: -16.8%
10,CN1CCCN(c2cc(-c3ccccc3)nc3ccnn23)CC1,inconclusive: 21.7%
11,COc1ccc(-c2nn(C)c3sc(C(=O)NCCCN4CCOCC4)cc23)cc1OC,inconclusive: -90.7%
12,Cc1cc(N2CCN(C)CC2)nc2ccc(NC(=S)NCCCN3CCc4ccccc4C3)cc12,inconclusive: -97.8%
13,OCCNc1nc(Nc2ccccc2Cl)nc2ccccc12,inconclusive: -13.4%
14,Cn1nc(-c2ccc(Cl)cc2)c2cc(C(=O)NCCCN3CCCCCC3)sc21,inconclusive: -7.98%
15,COc1nc(NCc2ccccc2)nc(NCc2cccnc2)n1,inconclusive: -28.8%
16,CN(CCCN1CCOCC1)c1cc(-c2ccc(F)cc2)nc2ccnn12,inconclusive: -54.7%
17,COc1ccc2nc(NCCNC(=S)NCCCN3CCOCC3)c(C#N)cc2c1,inconclusive: -59.5%
18,CCN1CCN(c2nc(Nc3ccc(NC(C)=O)cc3)nc(Nc3ccc(NC(C)=O)cc3)n2)CC1,inconclusive: -4.26%

row,Compound,"activity change, negative = fewer cells"
1,CN1CCN(c2nc(Nc3ccc(F)cc3)nc(Nc3ccc(F)cc3)n2)CC1,inconclusive: -7.52%
2,Cc1ccc(-c2nc(C(=O)NCCCN3CCOCC3)cc3c2[nH]c2ccccc23)cc1,inconclusive: -10.1%
3,COc1cc2ccccc2cc1C(=O)N(CCN(C)C)c1nc2c(OC)ccc(OC)c2s1,inconclusive: -101%
4,O=c1c2c(-c3ccccc3)csc2nc2c3ccccc3c(NCCN3CCOCC3)nn12,inactive: -15.7%
5,Cc1cc(N2CCN(C)CC2)nc2ccc(NC(=O)NC3CCCC3)cc12,inconclusive: -100%
6,CN1CCN(CC(=O)Nc2c(C(=O)c3ccccc3)oc3ccccc23)CC1,inconclusive: 0.482%
7,Cc1ccc(C(=O)c2oc3ccccc3c2NC(=O)CN2CCN(C)CC2)cc1,inconclusive: -99%
8,CN(C)c1ccc(Nc2nc(N)c3ccccc3n2)cc1,inconclusive: -18.2%
9,COc1cc2nc(N(CCCN(C)C)C(=O)c3ccc(S(=O)(=O)N4CCc5ccccc54)cc3)sc2cc1OC,inconclusive: -6.3%
10,CN(C)CCCNc1ncnc2oc(-c3ccccc3)c(-c3ccccc3)c12,inconclusive: 25.9%
11,CCN(CC)CCCN(Cc1cc2cc3c(cc2[nH]c1=O)OCO3)C(=S)NCCCN(C)C,inactive: -1.27%
12,c1ccc(-c2oc3ncnc(NCCCN4CCOCC4)c3c2-c2ccccc2)cc1,inconclusive: 11%
13,COc1ccc(OC)c(Nc2nc(NCCCO)c3ccccc3n2)c1,inconclusive: -15.2%
14,CN1CCN(c2ccc(NC(=O)c3cc(S(N)(=O)=O)ccc3N3CCOCC3)cc2)CC1,inconclusive: -78.2%
15,CCNC(=O)Nc1ccc2nc(N3CCN(C)CC3)cc(C)c2c1,inconclusive: -101%
16,COc1ccc(OC)c(Nc2nc(NCCO)c3ccccc3n2)c1,inconclusive: -99.9%
17,CCCNc1nc(Cl)nc(NCc2cccnc2)n1,inactive: -7.79%
18,CN(C)CCCNC(=S)N(CCN(C)C)Cc1cc2cc3c(cc2[nH]c1=O)OCCO3,inactive: -2.03%

# Individual results from the entries so far:
# For activity change, negative = fewer cells, COc1ccc(OC)c(Nc2nc(NCCCO)c3ccccc3n2)c1 shows inconclusive: -15.2%
# For activity change, negative = fewer cells, Cn1nc(-c2ccc(Cl)cc2)c2cc(C(=O)NCCCN3CCCCCC3)sc21 shows inconclusive: -7.98%
